According to paper PMC9178012:
No constants are given. Whether binding was seen depends on the method and setting. In cells and extracts the contact can be indirect. Some results given as binding are weak or reduced against the parent protein; the word gives no strength. For some assays here: Where a sequence is shown, tags or fusion partners need not be part of it.

Sequences of proteins named here, by UniProt entry; tags and fusion partners are left off. A change or cut given only in a name is not applied to a line headed by its entry.
UniProt P78527: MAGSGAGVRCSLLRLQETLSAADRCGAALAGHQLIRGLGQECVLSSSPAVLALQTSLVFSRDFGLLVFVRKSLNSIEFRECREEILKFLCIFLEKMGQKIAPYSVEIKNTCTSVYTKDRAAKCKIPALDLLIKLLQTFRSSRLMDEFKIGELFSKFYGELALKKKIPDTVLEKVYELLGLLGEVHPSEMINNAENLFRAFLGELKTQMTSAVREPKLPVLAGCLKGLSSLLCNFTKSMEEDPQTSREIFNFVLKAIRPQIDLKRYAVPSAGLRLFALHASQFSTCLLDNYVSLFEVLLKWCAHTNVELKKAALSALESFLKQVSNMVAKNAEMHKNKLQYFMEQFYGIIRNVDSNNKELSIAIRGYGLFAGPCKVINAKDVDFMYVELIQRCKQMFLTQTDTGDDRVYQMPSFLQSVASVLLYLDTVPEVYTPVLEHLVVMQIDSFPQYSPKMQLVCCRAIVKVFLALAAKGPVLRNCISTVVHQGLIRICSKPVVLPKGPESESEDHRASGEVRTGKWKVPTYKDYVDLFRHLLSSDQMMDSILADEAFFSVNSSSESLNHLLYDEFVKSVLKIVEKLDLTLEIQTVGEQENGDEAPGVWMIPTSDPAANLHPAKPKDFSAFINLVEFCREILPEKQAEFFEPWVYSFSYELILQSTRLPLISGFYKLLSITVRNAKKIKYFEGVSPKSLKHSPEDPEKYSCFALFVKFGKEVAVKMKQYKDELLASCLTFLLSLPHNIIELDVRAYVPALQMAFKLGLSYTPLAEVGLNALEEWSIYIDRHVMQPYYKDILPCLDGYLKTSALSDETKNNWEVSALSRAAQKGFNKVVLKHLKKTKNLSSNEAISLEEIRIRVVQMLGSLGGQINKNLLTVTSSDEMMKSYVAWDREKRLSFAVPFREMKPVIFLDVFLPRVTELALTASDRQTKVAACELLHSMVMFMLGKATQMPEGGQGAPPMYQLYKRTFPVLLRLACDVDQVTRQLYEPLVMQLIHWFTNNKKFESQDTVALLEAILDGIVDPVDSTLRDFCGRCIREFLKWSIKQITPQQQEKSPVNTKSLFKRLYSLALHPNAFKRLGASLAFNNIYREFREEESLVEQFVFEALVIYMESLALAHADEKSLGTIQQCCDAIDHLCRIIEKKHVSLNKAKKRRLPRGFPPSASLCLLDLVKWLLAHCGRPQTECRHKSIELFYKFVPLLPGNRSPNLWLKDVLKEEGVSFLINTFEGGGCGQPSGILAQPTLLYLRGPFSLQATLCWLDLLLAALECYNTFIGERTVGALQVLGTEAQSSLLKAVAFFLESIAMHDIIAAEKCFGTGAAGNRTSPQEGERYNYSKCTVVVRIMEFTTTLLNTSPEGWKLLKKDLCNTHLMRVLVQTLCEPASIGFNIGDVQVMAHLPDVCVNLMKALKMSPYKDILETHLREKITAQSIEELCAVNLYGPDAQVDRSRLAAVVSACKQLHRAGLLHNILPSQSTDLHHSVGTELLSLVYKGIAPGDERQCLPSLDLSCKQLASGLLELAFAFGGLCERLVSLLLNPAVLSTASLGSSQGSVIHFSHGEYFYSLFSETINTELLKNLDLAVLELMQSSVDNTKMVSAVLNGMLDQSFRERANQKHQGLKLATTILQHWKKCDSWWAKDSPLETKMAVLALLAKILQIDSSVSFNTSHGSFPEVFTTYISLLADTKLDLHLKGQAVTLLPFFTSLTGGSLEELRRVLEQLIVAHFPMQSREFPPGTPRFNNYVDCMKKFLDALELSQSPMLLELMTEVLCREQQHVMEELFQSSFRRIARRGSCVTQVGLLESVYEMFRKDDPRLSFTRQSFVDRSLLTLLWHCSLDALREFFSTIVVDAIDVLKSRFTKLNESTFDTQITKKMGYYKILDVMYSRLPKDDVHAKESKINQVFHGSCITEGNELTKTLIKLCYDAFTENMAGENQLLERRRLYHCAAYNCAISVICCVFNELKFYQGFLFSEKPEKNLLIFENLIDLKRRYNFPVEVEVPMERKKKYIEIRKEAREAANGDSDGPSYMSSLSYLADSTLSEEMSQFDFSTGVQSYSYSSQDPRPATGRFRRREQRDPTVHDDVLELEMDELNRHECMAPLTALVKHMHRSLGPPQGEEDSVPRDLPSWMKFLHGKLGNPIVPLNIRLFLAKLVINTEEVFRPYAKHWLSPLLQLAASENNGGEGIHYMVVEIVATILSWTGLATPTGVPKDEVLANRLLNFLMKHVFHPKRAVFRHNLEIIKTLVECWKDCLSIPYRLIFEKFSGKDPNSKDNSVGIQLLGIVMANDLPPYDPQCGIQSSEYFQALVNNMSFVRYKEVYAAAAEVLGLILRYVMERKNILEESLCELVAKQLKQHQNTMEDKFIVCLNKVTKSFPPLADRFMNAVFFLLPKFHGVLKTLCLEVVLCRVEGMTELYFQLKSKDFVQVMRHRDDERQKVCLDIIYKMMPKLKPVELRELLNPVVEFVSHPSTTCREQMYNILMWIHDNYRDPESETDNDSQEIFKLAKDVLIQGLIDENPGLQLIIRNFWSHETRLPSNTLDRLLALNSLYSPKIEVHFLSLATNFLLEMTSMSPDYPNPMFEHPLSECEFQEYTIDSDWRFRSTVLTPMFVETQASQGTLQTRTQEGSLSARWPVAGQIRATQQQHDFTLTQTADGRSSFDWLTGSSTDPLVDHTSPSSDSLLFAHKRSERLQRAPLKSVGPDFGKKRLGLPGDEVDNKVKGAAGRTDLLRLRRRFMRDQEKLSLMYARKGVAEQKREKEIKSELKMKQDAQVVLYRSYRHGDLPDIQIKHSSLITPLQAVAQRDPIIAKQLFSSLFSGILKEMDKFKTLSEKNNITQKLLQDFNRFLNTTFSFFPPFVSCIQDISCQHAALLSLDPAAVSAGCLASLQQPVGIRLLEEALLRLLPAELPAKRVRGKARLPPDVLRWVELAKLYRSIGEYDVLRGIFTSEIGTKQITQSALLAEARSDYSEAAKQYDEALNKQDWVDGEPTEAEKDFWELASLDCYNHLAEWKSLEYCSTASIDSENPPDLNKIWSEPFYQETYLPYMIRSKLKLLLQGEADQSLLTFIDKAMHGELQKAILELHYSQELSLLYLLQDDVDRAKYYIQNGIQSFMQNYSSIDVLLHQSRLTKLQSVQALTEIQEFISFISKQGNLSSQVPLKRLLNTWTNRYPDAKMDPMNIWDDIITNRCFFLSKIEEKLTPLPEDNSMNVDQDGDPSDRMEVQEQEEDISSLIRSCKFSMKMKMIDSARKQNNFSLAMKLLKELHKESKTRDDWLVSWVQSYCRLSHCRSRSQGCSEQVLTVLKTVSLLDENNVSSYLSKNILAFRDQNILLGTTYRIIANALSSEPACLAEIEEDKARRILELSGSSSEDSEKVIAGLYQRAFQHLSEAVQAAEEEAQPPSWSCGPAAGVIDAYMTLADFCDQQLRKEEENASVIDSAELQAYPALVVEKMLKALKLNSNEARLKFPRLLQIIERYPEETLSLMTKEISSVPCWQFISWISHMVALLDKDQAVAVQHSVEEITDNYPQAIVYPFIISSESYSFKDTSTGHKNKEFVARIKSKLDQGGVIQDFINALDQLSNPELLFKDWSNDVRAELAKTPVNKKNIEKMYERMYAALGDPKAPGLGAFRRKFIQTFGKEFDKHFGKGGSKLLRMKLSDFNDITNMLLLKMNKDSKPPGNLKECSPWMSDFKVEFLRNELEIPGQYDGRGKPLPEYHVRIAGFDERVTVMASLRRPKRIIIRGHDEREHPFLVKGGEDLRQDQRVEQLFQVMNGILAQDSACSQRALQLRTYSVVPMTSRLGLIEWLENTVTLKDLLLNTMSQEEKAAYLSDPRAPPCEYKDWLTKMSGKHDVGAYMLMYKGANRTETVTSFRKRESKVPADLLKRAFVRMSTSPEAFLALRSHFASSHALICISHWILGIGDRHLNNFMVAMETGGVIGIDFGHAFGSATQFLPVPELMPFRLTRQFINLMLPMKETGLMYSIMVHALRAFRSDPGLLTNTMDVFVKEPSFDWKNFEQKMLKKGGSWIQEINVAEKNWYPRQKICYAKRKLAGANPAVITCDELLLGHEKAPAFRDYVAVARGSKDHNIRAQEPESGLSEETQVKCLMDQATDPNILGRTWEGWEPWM
UniProt P12956: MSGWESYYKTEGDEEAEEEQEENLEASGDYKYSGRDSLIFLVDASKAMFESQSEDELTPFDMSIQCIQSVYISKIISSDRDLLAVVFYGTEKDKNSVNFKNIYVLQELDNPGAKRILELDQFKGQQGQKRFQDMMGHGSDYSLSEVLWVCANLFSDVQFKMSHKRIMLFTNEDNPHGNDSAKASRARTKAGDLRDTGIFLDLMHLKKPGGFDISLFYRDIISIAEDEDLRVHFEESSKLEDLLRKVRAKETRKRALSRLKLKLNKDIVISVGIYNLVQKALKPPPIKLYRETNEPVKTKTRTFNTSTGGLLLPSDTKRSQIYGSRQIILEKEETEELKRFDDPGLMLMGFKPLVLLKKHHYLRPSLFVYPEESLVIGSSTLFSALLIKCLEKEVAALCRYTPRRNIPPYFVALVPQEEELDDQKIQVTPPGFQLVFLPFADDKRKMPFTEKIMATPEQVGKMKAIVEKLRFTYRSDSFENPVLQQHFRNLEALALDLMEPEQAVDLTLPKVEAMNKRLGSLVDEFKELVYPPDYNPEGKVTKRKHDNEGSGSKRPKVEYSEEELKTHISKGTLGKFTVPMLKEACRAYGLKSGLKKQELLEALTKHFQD
UniProt Q13426: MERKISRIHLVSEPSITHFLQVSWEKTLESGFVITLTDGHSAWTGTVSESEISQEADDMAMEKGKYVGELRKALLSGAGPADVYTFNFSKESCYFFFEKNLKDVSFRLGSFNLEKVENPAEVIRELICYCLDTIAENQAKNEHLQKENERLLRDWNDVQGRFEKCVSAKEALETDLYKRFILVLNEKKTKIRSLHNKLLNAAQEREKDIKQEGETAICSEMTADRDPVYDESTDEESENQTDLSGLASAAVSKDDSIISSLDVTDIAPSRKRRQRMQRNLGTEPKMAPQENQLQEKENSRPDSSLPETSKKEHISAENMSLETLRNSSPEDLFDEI

What was measured:
[1] = target: GFP-tagged wild-type RECQL4 (UniProt O94761); assay: co-IP; GFP-tagged RECQL4 proteins immunoprecipitated with a GFP antibody from U2OS RECQL4 knockout cells expressing GFP-tagged WT or 6A RECQL4, 10 Gy with 10 min recovery; immunoblot
GFP-tagged RECQL4-6A = target: T1, GFP-tagged RECQL4-6A (UniProt O94761); assay: as above
T1 sequence: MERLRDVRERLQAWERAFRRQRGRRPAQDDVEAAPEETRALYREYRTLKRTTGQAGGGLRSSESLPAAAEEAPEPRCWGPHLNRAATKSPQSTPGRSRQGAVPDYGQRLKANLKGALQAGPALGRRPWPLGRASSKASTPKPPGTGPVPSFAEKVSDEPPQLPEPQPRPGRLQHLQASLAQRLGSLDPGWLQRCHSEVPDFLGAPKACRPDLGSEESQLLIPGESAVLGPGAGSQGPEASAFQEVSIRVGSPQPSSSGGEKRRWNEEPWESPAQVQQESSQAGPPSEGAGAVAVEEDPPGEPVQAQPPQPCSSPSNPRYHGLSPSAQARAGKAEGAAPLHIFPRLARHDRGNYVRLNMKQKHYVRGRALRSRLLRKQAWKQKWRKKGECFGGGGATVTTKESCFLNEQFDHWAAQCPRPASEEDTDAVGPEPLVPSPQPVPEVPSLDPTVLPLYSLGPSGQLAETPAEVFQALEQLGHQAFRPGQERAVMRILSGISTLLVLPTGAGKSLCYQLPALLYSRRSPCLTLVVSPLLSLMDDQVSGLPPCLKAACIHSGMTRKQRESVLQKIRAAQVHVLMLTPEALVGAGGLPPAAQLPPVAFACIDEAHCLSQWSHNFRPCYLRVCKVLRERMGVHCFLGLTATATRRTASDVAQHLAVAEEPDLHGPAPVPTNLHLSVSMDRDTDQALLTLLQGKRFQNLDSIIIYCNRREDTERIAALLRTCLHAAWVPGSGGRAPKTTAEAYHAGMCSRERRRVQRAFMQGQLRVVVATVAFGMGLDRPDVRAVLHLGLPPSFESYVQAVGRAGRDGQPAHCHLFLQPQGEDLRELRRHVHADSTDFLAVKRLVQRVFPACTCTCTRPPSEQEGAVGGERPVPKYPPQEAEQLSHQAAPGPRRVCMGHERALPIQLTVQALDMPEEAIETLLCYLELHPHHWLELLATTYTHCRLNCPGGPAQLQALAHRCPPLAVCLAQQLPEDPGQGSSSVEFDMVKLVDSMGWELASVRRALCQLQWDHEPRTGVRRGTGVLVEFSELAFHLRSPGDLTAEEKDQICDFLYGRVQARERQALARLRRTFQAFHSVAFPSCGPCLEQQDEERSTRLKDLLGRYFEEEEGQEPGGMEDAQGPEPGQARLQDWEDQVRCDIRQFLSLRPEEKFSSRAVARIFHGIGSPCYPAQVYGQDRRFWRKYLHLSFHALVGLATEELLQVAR

[2] = target: RECQL4 (human (endogenous in U2OS and HCT116)) (UniProt O94761)

binding [1]	binding (GFP-tagged RECQL4-6A)	binding [2]	Substance
binds	binds	binds	DNA-PKcs (from UniProt P78527 1-4128)
binds	binds	binds	Ku70/80 heterodimer (from UniProt P12956 1-609; P13010 1-732) (complex)
binds	binds		XRCC4 (from UniProt Q13426 1-336)
